# Results: patent US20100028953
# The chains behind the UniProt entries cited, without tags or fusion partners. Where a name states a change or a piece, a line headed by the entry shows the natural chain unless it says otherwise.
# UniProt P00970: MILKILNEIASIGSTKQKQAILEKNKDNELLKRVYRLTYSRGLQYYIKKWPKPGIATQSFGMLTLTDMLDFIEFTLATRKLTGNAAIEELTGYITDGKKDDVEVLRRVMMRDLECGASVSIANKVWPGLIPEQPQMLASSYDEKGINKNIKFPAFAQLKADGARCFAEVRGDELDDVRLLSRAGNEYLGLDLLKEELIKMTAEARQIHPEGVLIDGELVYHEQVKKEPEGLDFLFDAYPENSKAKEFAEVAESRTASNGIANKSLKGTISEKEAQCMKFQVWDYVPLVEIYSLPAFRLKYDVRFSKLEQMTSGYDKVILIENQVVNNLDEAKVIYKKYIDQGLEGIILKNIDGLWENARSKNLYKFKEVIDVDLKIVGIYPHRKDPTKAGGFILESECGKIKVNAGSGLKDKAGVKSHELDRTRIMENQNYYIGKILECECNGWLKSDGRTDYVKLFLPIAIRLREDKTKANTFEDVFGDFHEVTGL
# Tests used:
# [1] = tested on: BccI restriction endonuclease; assay: enzyme reaction in vitro; conditions: NEB buffer 1, purified recombinant protein, protein details: NEB
# [2] = tested on: MlyI restriction endonuclease; assay: enzyme reaction in vitro; conditions: 66 nt oligo released from suicide cassette; 1 U/ul, NEB buffer 4, 37 C, 16 h; purified recombinant protein; protein details: NEB buffer 4 used; folded or branched DNA
# [3] = tested on: Nt.AlwI (N.Alw I) nicking endonuclease; assay: enzyme reaction in vitro; conditions: multimer nicked to monomers; purified recombinant protein; protein details: NEB buffer 2 used; folded or branched DNA
# [4] = target: T4 DNA ligase (Enterobacteria phage T4) (UniProt P00970); assay: activity assay; conditions: 5'-phosphate; self-templated ligation to circle; 37 C, 30 min; purified recombinant protein; protein details: Fermentas; folded or branched DNA
sequence,measurement,setting,value
CTGCCATCTTAACAAAC (double strand) [Bcc I (-)-oligo hybridized to RC product 1],activity on this sequence,"[1]; cleavage only with (-)-oligo, none with (+)-oligo or no oligo",active
GTCGATCCCTGCCATCTTAACAAACCCTCGACCTCAATGCTGCTGCTGTACTACTCTTATGCGATTACCGGGCTGGATCGACTCGGAATTTCTTCCGA [Rolling circle product 2 (multimer of SF86)],activity on this sequence,[2],active
same,activity on this sequence,[3],active
GTCGATCCCTGCCATCTTAACAAACCCTCGACCTCAATGCTGCTGCTGTACTACTCTTATGCGATTACCGGGCTGGATCGACTCGGAATTTCTTCCGA [SF86 (oligonucleotide with suicide cassette)],activity on this sequence,[4],active
GTTTGTTAAGATGGCAG (double strand) [Bcc I (+)-oligo hybridized to RC product 2],activity on this sequence,"[1]; most prominent cleavage with (+)-oligo, background in other lanes",active

# For some assays here: The exact form of at least one protein or probe is not confirmed.
